Among the data in publication PMC5290327, “SC83288 is a clinical development candidate for the treatment of severe malaria” (Nature Communications, 2017) are IC50 and Ki values, retold here.

SMILES strings stand for the structures.

This assay concerns the target GABA (non-selective). The experiment in a line: Radioligand binding. The note with it: control compound. The method, then: The study was carried out by Cerep (Celle l'Evescault, France). An in vitro pharmacological profiling panel was designed to detect potential high-risk clinical adverse drug reactions. The panel comprised of 54 targets.
The specific ligand binding to the receptors was defined as the difference between the total binding and the non-specific binding determined in the presence of an excess of unlabelled ligand. Results were expressed as a per cent of control specific binding and as a per cent inhibition of control specific obtained in the presence of the test compounds. Results showing an inhibition (or stimulation) >50% were considered to represent significant effects of the test compounds. […] The IC50 values were determined by non-linear regression analysis of the competition curves generated with mean replicate values using Hill equation curve fitting. The inhibition constants (Ki) were calculated using the Cheng Prusoff equation.

The IC50 is the concentration at which inhibition is half-maximal. For orientation: Ki means the equilibrium dissociation constant of an inhibitor or competing ligand from its target. For the molecule `NCCCC(=O)O` [GABA, reference compound], the IC50 (read-out: Control specific binding IC50) turned out to be 16 nM. Moreover, under “read-out: Control specific binding Ki”, the inhibitory constant (Ki) came to 9.5 nM.
